Laboratory results from patent publication US20230416739A1.
These are yes or no findings as the source states them, for the method shown. In cells and extracts the contact can be indirect. Here binding means that the protein was enriched with, or labelled near, the bait; the list need not be complete.

By UniProt entry, the sequences of proteins in these tests, tags left out.
UniProt Q01082: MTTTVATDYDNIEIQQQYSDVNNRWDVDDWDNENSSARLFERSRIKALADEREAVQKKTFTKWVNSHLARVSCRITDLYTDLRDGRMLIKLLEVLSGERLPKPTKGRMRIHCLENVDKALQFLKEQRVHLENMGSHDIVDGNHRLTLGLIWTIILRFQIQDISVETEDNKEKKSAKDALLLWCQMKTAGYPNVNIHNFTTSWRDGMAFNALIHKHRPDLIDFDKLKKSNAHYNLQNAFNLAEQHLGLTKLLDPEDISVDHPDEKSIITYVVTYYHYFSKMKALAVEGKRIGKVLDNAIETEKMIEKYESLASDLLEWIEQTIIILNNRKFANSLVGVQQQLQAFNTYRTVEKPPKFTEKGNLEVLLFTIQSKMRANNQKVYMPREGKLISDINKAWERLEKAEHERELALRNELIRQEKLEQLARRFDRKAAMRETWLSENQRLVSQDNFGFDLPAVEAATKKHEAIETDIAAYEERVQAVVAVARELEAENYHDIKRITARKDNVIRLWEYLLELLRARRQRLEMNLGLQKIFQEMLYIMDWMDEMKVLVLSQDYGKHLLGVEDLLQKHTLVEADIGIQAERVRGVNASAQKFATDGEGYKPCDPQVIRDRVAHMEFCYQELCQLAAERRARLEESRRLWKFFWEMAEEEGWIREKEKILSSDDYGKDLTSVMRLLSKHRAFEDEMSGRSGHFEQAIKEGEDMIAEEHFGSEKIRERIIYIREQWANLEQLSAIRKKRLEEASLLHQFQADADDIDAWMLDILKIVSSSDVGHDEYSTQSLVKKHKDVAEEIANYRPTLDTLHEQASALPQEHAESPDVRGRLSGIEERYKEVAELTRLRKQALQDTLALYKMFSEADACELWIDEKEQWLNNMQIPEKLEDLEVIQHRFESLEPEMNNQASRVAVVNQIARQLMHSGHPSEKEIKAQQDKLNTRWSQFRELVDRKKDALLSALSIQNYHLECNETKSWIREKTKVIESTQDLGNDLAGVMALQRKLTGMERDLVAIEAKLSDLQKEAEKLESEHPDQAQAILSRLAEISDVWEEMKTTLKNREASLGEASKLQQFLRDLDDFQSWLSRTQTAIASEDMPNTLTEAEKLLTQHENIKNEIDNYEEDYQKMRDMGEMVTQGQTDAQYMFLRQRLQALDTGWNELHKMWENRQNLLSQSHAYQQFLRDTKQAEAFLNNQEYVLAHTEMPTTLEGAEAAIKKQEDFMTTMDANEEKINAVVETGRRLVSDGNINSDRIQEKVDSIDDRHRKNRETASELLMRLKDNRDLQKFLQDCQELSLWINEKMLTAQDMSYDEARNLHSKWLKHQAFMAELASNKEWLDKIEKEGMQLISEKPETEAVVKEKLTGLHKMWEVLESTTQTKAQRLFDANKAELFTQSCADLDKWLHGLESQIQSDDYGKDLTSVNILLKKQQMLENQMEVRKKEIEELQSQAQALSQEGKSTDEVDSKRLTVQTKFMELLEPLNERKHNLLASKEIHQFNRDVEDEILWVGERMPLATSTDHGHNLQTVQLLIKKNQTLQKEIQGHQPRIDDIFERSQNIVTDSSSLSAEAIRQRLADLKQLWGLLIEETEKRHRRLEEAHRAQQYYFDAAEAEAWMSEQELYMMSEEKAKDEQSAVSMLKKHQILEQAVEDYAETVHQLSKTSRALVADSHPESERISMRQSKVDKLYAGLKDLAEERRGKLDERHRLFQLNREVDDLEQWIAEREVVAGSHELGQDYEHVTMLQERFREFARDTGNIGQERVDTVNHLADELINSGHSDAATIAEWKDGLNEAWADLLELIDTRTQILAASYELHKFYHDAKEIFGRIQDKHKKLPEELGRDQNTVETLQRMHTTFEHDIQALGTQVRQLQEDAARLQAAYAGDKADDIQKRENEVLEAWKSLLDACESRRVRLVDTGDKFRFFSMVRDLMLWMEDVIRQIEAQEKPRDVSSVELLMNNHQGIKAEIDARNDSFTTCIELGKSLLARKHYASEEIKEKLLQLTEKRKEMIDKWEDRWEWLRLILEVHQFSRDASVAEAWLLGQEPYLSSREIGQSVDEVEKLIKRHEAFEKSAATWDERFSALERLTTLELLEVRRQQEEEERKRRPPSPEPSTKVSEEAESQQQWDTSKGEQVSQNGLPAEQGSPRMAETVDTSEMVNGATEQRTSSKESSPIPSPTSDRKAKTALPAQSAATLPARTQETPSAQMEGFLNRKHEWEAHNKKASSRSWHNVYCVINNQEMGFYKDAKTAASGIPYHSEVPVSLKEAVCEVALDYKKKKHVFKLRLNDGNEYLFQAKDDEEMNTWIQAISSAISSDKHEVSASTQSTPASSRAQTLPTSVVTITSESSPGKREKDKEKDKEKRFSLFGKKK

Assays:
SREBP1_HUMAN (human) [1] = target: T1, SREBP1_HUMAN (human) (UniProt P36956); experiment: mass spectrometry of Sptbn1 pull down in HEK293T cells
T1 sequence (looked up): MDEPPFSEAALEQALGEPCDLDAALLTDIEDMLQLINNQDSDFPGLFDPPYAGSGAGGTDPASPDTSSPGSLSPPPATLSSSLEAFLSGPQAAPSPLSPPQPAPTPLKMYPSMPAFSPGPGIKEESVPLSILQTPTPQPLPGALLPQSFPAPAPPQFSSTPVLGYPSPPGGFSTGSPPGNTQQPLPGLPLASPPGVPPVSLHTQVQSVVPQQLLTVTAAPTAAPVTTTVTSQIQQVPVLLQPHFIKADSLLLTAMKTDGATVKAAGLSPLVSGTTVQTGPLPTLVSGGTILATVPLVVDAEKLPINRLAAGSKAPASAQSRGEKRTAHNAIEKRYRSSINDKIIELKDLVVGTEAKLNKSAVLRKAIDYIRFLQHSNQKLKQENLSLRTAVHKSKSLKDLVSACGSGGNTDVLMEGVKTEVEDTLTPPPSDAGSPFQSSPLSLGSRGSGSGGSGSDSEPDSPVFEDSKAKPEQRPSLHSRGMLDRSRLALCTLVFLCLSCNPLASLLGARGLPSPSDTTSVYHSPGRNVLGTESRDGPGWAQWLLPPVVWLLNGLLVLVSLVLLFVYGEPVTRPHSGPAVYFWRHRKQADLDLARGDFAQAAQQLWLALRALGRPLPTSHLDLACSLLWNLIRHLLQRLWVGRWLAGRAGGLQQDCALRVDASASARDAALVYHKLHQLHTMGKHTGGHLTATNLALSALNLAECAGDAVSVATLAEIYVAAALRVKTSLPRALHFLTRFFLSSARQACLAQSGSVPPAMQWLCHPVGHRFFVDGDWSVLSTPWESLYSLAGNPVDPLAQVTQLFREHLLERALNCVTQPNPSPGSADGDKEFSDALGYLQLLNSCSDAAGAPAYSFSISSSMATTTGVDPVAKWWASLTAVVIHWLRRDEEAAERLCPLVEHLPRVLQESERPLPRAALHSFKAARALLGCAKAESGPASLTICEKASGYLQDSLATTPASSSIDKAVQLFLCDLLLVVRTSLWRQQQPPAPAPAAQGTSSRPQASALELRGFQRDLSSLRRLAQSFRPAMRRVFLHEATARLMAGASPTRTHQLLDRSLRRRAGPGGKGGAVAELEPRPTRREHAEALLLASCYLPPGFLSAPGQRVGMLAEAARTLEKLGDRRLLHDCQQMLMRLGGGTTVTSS

SREBP1_HUMAN (human) [2] = target: T1, SREBP1_HUMAN (human); experiment: co-immunoprecipitation with V5-tagged SPTBN1 from stressed HEK293T cells, mass spectrometry

## full-length V5-tagged SPTBN1 (from UniProt Q01082 1-2364)
SREBP1_HUMAN (human) [1]
  binding: binds
SREBP1_HUMAN (human) [2]
  binding: binds
